# Results of single-concentration screens

Amino acid sequences for entries named in this document (tags omitted). Residues count along the entry.
UniProt Q8IDJ8, 1-583: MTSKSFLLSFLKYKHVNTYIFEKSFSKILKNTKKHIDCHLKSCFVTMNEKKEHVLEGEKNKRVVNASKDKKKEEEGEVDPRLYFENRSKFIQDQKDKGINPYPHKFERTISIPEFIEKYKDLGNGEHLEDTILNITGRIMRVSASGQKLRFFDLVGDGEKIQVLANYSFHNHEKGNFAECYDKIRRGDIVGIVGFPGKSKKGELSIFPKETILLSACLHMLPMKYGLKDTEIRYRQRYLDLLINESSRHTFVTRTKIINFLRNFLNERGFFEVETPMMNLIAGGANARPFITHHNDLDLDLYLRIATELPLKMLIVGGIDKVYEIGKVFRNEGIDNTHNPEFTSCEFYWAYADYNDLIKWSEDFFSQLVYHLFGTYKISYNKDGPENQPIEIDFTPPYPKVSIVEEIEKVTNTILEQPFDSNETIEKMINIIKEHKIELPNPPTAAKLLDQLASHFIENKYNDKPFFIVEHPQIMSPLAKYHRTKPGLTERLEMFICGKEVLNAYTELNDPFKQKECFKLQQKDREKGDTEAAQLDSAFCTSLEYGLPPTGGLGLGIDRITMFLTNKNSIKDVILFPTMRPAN

The filed quantity is “Percent Effect” (%). The record does not define 0% and 100%; most values in the screen are far below 50% and negative numbers occur (in some assays of this library far below -100). The compounds are a random part of those screened.

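Enzyme assay of the cytosolic lysyl-tRNA synthetase in 384-well plates, read by luminescence. Target: Lysine-tRNA ligase, Plasmodium falciparum 3D7 (UniProt Q8IDJ8). Concentration: 30 µM. Higher reads as stronger inhibition, judged from the few compounds that gave an IC50. Of about 69,000 compounds tested this way, about 49 (0.071%) reached 50% or more in at least one test.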

compound	percent effect
O=C(CCNc1ccccc1)NC1CCN(C(=O)C2CCCCC2)CC1	3.935%
CCn1ncc(CN2CCc3c(nc(-c4cccnc4)[nH]c3=O)C2)c1C	6.518%
CCOc1ccc(S(=O)(=O)C(C)C(=O)Nc2cc(C)no2)cc1 (configuration not stated)	4.283%
Cc1nc(-c2ccc(C(=O)O)cc2)cc(C2CCCN(C(C)C)C2)n1 (configuration not stated)	0.9408%
Clc1ccc(C(CNCc2ccncc2)n2cccn2)cc1 (configuration not stated)	-1.871%
Cc1cc(C)cc(C(=O)NCc2ncnn2C)c1	-0.3495%
COCCNC(=O)[C@@H]1C[C@H]2[C@H](CCN2c2cc(OC)ncn2)O1	2.713%
CO[C@@H]1CCN(Cc2nccs2)C[C@@H]1Cc1cccc(C)c1	-0.6966%
COCC(=O)N1CCCC(C)(c2nncn2C)C1 (configuration not stated)	6.043%
COC(=O)CCCn1ccnc1-c1ccccc1	3.426%
CC(C)CN1CCC2(C=C(C(=O)NC3CC3)c3ccccc32)CC1	1.15%
CC(=O)N1CC(=O)N(c2cnn(C)c2)CC12CCN(Cc1nccs1)C2 (configuration not stated)	7.357%
N#Cc1ccccc1CN1CCCCC1Cn1cncn1 (configuration not stated)	4.262%
Clc1cccc(-c2cccc(N3CCC(NC4CCOCC4)CC3)c2)c1	5.36%
c1ccc(N2CCCC2)c(NCc2ccncc2)c1	2.21%
O=C(O)CSc1nc(-c2ccc3c(c2)CCC3)n[nH]1	7.669%
CCCC(=O)NCC(=O)Nc1cc(F)ccc1SCC(F)F	8.703%
COc1ccccc1NC(=O)NCCCn1nc2ccccn2c1=O	1.348%
CN(Cc1nccn1C)C1CCCN(CCCc2ccccc2)C1 (configuration not stated)	-1.164%
Cc1ncc2c(n1)CN(Cc1nnc(-c3occc3C)o1)CC2	7.673%
CC(=O)N1CCC(c2nccnc2-c2ccc(F)cc2)CC1	4.018%
Cc1cc(=O)c(C(=O)N2CCN(C)c3ccccc3C2)c[nH]1	0.4106%
O=C(Nc1nnn[nH]1)c1ccc(I)c(F)c1	6.948%
O=C(NC[C@H]1OC[C@@H](NC2CCC(F)(F)CC2)[C@@H]1O)c1ccccc1	1.892%
CN1CCN(C(=O)[C@H]2CC[C@@H]3[C@@H](CCN3Cc3ccsc3)O2)CC1	9.46%
Cc1nccn1CC1CCCN(Cc2ccc(-c3cccnc3)cc2)C1 (configuration not stated)	4.536%
Cc1noc([C@@H]2C[C@H]3OCC[C@H]3N(Cc3cc(C)c(C)o3)C2)n1	0.9056%
CS(=O)(=O)c1ccc(C(=O)N2CCCC(n3cncn3)C2)o1 (configuration not stated)	-2.964%
C=Cc1ccc(C(=O)N2CCCC(Nc3ccc(OC)cc3)C2)cc1 (configuration not stated)	-1.873%
Cc1cc2ccncc2n1CC1(O)CCN(C(=O)c2cccnc2)CC1	1.044%
CCN(Cc1ccc2c(c1)OCO2)c1ncc(S(N)(=O)=O)s1	6.213%
COCCO[C@@H]1CCN(Cc2csc(C)n2)[C@H]1Cc1ccccc1	2.679%
Cc1nnc([C@H]2C[C@@H]3CCN(C(=O)C4CCOCC4)C[C@H]3O2)[nH]1	14.68%
Cc1nc2c(c(NCC(=O)NC(C)C)n1)Cc1ccccc1OC2	4.182%
O=C(NC[C@H]1OC[C@@H](NC2COC2)[C@@H]1O)Nc1ccccc1	3.632%
Cn1cc(C2=CCN(CCC(=O)NCc3ccc(Cl)cc3)CC2)cn1	5.142%
O=C1CN(Cc2nnc(-c3ccc(Br)cc3)o2)CCN1	-1.161%
Cc1ccc(CC(=O)N2CCN(C3CCOC3=O)CC2)cc1 (configuration not stated)	1.249%
CCN1C(=O)CCCC12CCCN(C(=O)c1ccoc1C)C2 (configuration not stated)	2.966%
CC(C)NC(=O)c1n[nH]c(-n2cnnc2)n1	3.673%
CC(C)(C)CC(=O)N1CCCC2(CC(C(=O)Nc3ccccc3)=NO2)C1 (configuration not stated)	2.338%
CNS(=O)(=O)c1cccc(C(C)NCc2cccc(O)c2)c1 (configuration not stated)	1.895%
NC(=O)[C@@H]1CN2CCN(C(=O)C3CC3)C[C@@H]2[C@H]1c1ccccc1	5.594%
Cn1cc(N2CC3(CCN(Cc4ccccc4)CC3)OCC2=O)cn1	3.088%
O=C(C1CC1)N1CCC2(CCN2Cc2ccc(F)cc2)C1 (configuration not stated)	2.345%
Cc1nc(CN(C)C2CCN(Cc3nc(C4CC4)no3)C2)no1 (configuration not stated)	-3.441%
O=C1N(Cc2cccc(F)c2F)CCCC1(O)CNCc1ccccn1 (configuration not stated)	0.9853%
CN1C[C@@H](N)C[C@H]1c1nc(-c2ccc3c(c2)OCO3)no1	6.663%
CCN1CC(COC(=O)c2cccc(Br)c2)CC1=O (configuration not stated)	0.9407%
NC(=O)Cn1cc(NC(=O)N2CCCC2)cn1	5.838%
CCCSCC(=O)Nc1ncn(CC(=O)N2CCCCCC2)n1	8.591%
Cc1cccc(OCC(O)CN2CCN(c3nccs3)CC2)c1 (configuration not stated)	2.036%
CCC(=O)N1CCCCC1c1nc(O)c2c(n1)CN(C(C)=O)CC2 (configuration not stated)	0.3986%
COc1cc(CN)c(OC)c2c1OCO2	5.796%
CCn1nccc1CNC(=O)C1CCCCC1	6.38%
CC(C)NC(=O)[C@H]1C[C@@H]2[C@@H](C1)OCCN2Cc1nccs1	4.513%
c1cnc(N2CC[C@@H](OCC3CC3)[C@@H]2Cc2cccnc2)nc1	3.072%
O=C(c1ccsc1)N1CCN2C[C@H](OCc3cccnc3)C[C@H]2C1	-1.799%
CN(Cc1ccco1)Cc1cncc2c1CCN(S(C)(=O)=O)C2	-0.7312%
COc1ccccc1CC(=O)N1CCCC(n2nc(C)nc2C)C1 (configuration not stated)	0.7498%
CNC(=O)c1cccc(NC(=O)CN2CCCN(S(C)(=O)=O)CC2)c1	7.759%
O=C(Nc1cccc(N2CCN(CC3CC3)CC2)c1)N1CCCC1	-0.6511%
Oc1ccc(Cl)cc1CNCc1cccc(C(F)(F)F)c1	1.001%
CN1CCC(O)(CNC(=O)c2cc(COc3cccc(F)c3)[nH]n2)CC1	2.713%
Clc1ccc2[nH]c3c(c2c1)CCCC3c1nn[nH]n1 (configuration not stated)	3.73%
CNC(=O)[C@@H]1C[C@@H](N)CN1Cc1cc2cc(C)cc(C)c2[nH]c1=O	5.894%
O=C(NCCCn1ccnc1)c1csc2c1CCCC2	-5.24%
CC(C)(C)c1nc(CC(=O)NCCC(=O)Nc2ccncc2)cs1	-0.2684%
COC(=O)CCNC(=O)c1cc(Br)c2c(c1)OCCO2	1.837%
O=C(NCc1ccnc(OCC2CC2)c1)C1COc2ccccc2O1 (configuration not stated)	3.779%
c1ccc(-c2noc(CN3CCCC(Cn4cncn4)C3)n2)nc1 (configuration not stated)	1.105%
O=C(N1CCCC1)N1CCO[C@H]2[C@@H](Oc3ccccn3)CC[C@@H]21	-3.182%
O=C(NCCn1ccnc1)N1CCCC1c1ccsc1 (configuration not stated)	0.5158%
Cc1nc([C@H]2C[C@@H]3CCN(Cc4scnc4C)C[C@H]3O2)no1	3.419%
CC(C)Oc1cccc(C(=O)C2CCCN(S(=O)(=O)C(C)C)C2)c1 (configuration not stated)	-4.076%
O=C1COC2(CCN(C(=O)c3ccco3)CC2)CN1Cc1cccnc1	6.933%
CC(O)CN1CCN(C(=O)c2ccc(Br)o2)CC1 (configuration not stated)	-3.747%
Cc1noc(NCc2ccc(F)cc2)n1	6.981%
CC(C)NC(=O)N1CCCC2(CCN(c3ccccc3)C2=O)C1 (configuration not stated)	3.15%
O=C(N[C@@H]1CC[C@@H](N2CCCC2)[C@@H]1O)c1cc2cccc(F)c2[nH]1	1.525%
CN1CCN(c2ccc3ccc(C(=O)N4CCCO4)cn23)CC1	1.114%
CC(C)c1cc(NC2CCCN(C(=O)c3cccs3)C2)ncn1 (configuration not stated)	2.36%
CN(C)CCNC(=O)c1nc2c(s1)CCCN2C(=O)C1CC1	3.244%
CCC(C)n1cnc(S(=O)(=O)N(C)c2cccnc2N(C)C)c1 (configuration not stated)	5.388%
Cc1cnc(NCCCN2CCc3ccccc32)nc1	3.361%
Cc1cc(CNc2ccc(C(F)(F)F)cc2)no1	1.482%
CCc1nc2n(n1)CC(NCc1noc(-c3ccccc3)n1)CC2 (configuration not stated)	-3.351%
CC(=O)NCC(=O)N1CCc2nc(C)nc(C)c2CC1	2.256%
CCS(=O)(=O)N1CCC(c2nc(C)c(C)c(N3CCCC3)n2)CC1	-1.323%
O=C(NC1CC1)N1CCc2ccc(=O)n(Cc3cccnc3)c2CC1	0.5547%
CC(=O)N(C)Cc1ccc(OCc2cccs2)cc1	-0.9916%
COCCN(Cc1ccccn1)C(=O)Nc1cccnc1-n1cccn1	0.1009%
CC(=O)N1CCC2(CC1)C(=O)N(c1ccc(C)nc1)CCN2CC(C)C	4.708%
CC1CCCN(S(=O)(=O)NCCN/C(O)=C2/N=CC=CC2=O)C1 (configuration not stated)	1.526%
CN1CCCN(C(=O)c2nc3c(s2)CCCN3CC2CC2)CC1	6.731%

The first 6 entries again:

compound,percent effect
O=C(CCNc1ccccc1)NC1CCN(C(=O)C2CCCCC2)CC1,3.935%
CCn1ncc(CN2CCc3c(nc(-c4cccnc4)[nH]c3=O)C2)c1C,6.518%
CCOc1ccc(S(=O)(=O)C(C)C(=O)Nc2cc(C)no2)cc1 (configuration not stated),4.283%
Cc1nc(-c2ccc(C(=O)O)cc2)cc(C2CCCN(C(C)C)C2)n1 (configuration not stated),0.9408%
Clc1ccc(C(CNCc2ccncc2)n2cccn2)cc1 (configuration not stated),-1.871%
Cc1cc(C)cc(C(=O)NCc2ncnn2C)c1,-0.3495%

From ChEMBL document CHEMBL3988442, “University of Dundee, Small-Polar-MMV Screening Library” (2021).